PubChem BioAssay AID1259326 | Drosophila RNAi Screening Center, 2017

Test: 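Knock-downs that shift cellular ATP after a high zinc chloride dose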
Cell system: Drosophila S2R+ cells
Reagents: long dsRNA against Drosophila genes
Duration: about 5 days (4 days of RNAi, then 1 day of zinc)
Conditions: zinc chloride added to 15 mM final for one day
Detection: 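Luminescent ATP signal marks surviving cells, read after RNAi for 4 days then 15 mM zinc chloride for 1 day; z-scores are replicate means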
Direction: averaged z-score: higher = more ATP than other wells, i.e. more surviving cells, after zinc; ATP luminescence: higher = more ATP, i.e. more surviving cells
Active means: 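Called active when the averaged z-score lies outside -1.5 to 1.5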
Here is an unselected part of 573 reagents tested. 39 of them (6.8%) count as active. 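All actives have raised ATP, meaning more surviving cells; in these data active calls sit at averaged z-scores near 1.5 or above.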 The raw values are shown without normalisation. The record does not give: the amount of reagent.

gene knocked down	DRSC id	averaged z-score	ATP luminescence, replicate 1	ATP luminescence, replicate 2	outcome
foxo	DRSC15463	-0.268	82053	77165	inactive
foxo	DRSC37549	-0.216	81470	64189	inactive
foxo	DRSC40808	0.188	67560	85261	inactive
eRF3	DRSC03322	1.9	1.40e5	1.11e5	active
eRF3	DRSC32119	-0.0377	89519	64919	inactive
eRF3	DRSC32120	1.55	96052	1.02e5	active
MYPT-75D	DRSC10743	-0.249	71059	1.02e5	inactive
MYPT-75D	DRSC41230	-0.228	66754	71179	inactive
Atg1	DRSC09809	0.769	1.11e5	68520	inactive
Atg1	DRSC09810	0.444	82517	87560	inactive
Atg1	DRSC37017	-0.342	88289	73563	inactive
Rala	DRSC27866	-0.316	77286	92346	inactive
Rala	DRSC41239	-0.144	71368	73024	inactive
Rala	DRSC41240	0.342	84180	79400	inactive
Stlk	DRSC37359	-0.0963	95619	76316	inactive
Stlk	DRSC39268	-0.299	69687	68555	inactive
Stlk	DRSC41249	-0.0963	65434	72620	inactive
CG9784	DRSC20210	-0.516	83340	72088	inactive
CG9784	DRSC28204	-0.56	80355	63513	inactive
CG9784	DRSC41208	-0.0966	74352	73596	inactive
Nipsnap	DRSC20169	0.202	91523	93427	inactive
Nipsnap	DRSC41231	0.198	78571	82174	inactive
SMC1	DRSC16846	0.243	80527	87646	inactive
SMC1	DRSC41246	-0.306	65056	73856	inactive
SMC1	DRSC41247	0.475	83333	82848	inactive
alphaCOP	DRSC08706	2.71	1.45e5	1.37e5	active
alphaCOP	DRSC30831	2.03	1.09e5	1.11e5	active
alphaCOP	DRSC30832	2.71	1.41e5	1.28e5	active
